Screening data, single-dose tests

Mtb cholesterol medium: 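Whole-cell growth test on Mycobacterium tuberculosis, read after 4 days in a medium based on cholesterol and the lipid DPPC; the read-out is not stated. Compounds at 500 µM. The record gives no direction; compounds that gave an IC50 in retests scored well above the rest, so higher reads as more growth inhibition. Size under these conditions: about 18,000 compounds, about 900 of them at 50% or above in at least one test.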
Mtb glucose medium: 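Growth of Mycobacterium tuberculosis over 3 days (7H9 medium with glucose and tyloxapol); the read-out is not stated. Tested at 500 µM. Direction is inferred from retests: higher values go with more growth inhibition. Of about 18,000 compounds tested this way, about 1,400 (7.9%) reached 50% or more in at least one test.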

The filed quantity is “Percent Effect” (%). The record does not define 0% and 100%; most values in the screen are far below 50% and negative numbers occur (in some assays of this library far below -100). This is an unselected part of the compounds tested.

| # | Compound | Mtb cholesterol medium | Mtb glucose medium |
|---|---|---|---|
| 1 | `CC(C)OCCCNC(=O)C1CCNCC1` | -1.357 | -8.155 |
| 2 | `CNS(=O)(=O)c1ccc(C(=O)Nc2ccccc2C)o1` | 0.6027 | 19.56 |
| 3 | `NC(=O)CN1CCCC(Nc2ccc(F)c(F)c2)C1` (centres undefined) | 42.06 | 44.26 |
| 4 | `Cc1nccnc1N1CCNCC1` | -24.06 | -6.583 |
| 5 | `Cc1occc1C(=O)N(C)Cc1cnn(C)c1` | -29.02 | -8.331 |
| 6 | `CCOCCSc1nnnn1CC1CCCO1` (centres undefined) | 42.79 | 37 |
| 7 | `CCOC(=O)C(C)(N)C(C)C` (centres undefined) | -14 | -10.22 |
| 8 | `OC1CCN(C2CCNCC2)C1` (centres undefined) | -0.8637 | 5.933 |
| 9 | `Cn1cnn(Cc2nnc(-c3cccs3)o2)c1=O` | -4.054 | 7.253 |
| 10 | `O=C(CCCn1cccn1)N[C@H]1C[C@@H]2OCC[C@H]12` | -4.48 | -0.4597 |
| 11 | `Cc1cccc(OCCNC(=O)CN(C)CC(N)=O)c1` | 1.316 | 20.56 |
| 12 | `COc1cc(Br)c(S(=O)(=O)N2CCOCC2)cc1OC` | 14.17 | 39.04 |
| 13 | `CN(C)C(=O)CCOC(=O)c1cccc(Cl)c1` | 53.06 | 70 |
| 14 | `COc1cccc(CN2CCCN(C)CC2)c1OC` | 6.558 | -0.4186 |
| 15 | `COC(=O)c1ccc(C(=O)Nc2ccc(C)cn2)nc1` | -1.137 | 0.8824 |
| 16 | `COc1cc(NCCN(C)S(C)(=O)=O)ncn1` | 2.667 | 22 |
| 17 | `CC(C)N(C)CC(=O)NCCn1cccc1` | 5.955 | -2.273 |
| 18 | `Nc1ccnc(-c2ccccc2)c1` | -6.714 | -3.201 |
| 19 | `NC1CCCN(c2ccccn2)C1` (centres undefined) | 10.41 | 7.585 |
| 20 | `CCc1noc(C)c1C(=O)NCCCN1CCOCC1` | -1.139 | 2.731 |
| 21 | `Cn1cc(C#N)cc1C(=O)NCC1CNCCO1` (centres undefined) | 9.1 | 6.627 |
| 22 | `CN(CC(=O)N1CCOCC1)c1ccc(C#N)cn1` | 0.8995 | -3.857 |
| 23 | `FC(F)(F)c1cccc(NCc2cccnc2)n1` | 86.25 | 84.2 |
| 24 | `COC(=O)C(C)(O)Cn1ccccc1=O` (centres undefined) | -10.17 | -9.119 |
| 25 | `CCn1nccc1[C@@H]1OCC[C@H]1N` | -7.088 | 2.405 |
| 26 | `COC(=O)CC1C(=O)NCCN1Cc1ccc(Br)o1` (centres undefined) | -22.7 | -1.754 |
| 27 | `NCCNC(=O)c1ccno1` | 10.94 | 35.9 |
| 28 | `CC(C)c1ccc(CN)cn1` | -7.247 | 6.651 |
| 29 | `CN(CCOc1ccc(F)cc1)CCC(N)=O` | 7.173 | 15.66 |
| 30 | `O=C(CCN1CCC(O)CC1)Nc1ccc(F)c(F)c1` | 13.28 | 11.49 |
| 31 | `COC(=O)CC1CN(CCc2ccccn2)CCO1` (centres undefined) | -2.079 | -1.602 |
| 32 | `CN(CC(=O)Nc1ccsc1)C(=O)c1ccco1` | 49.84 | 14.15 |
| 33 | `NC(=O)CCc1ccc(S(=O)(=O)N2CCCCC2)cc1` | 6.484 | -3.447 |
| 34 | `Cn1ccc(C(=O)Nc2ccc(Br)cn2)n1` | 17.91 | 6.94 |
| 35 | `c1ccc2c(c1)COC21CCCNC1` (centres undefined) | -28.78 | -13.53 |
| 36 | `CNc1cc(C(N)=O)c2cccc(Cl)c2n1` | 20.25 | 37.94 |
| 37 | `COc1cc(C)c([S+](C)[O-])cc1OC` (centres undefined) | 2.85 | 7.814 |
| 38 | `c1c[nH]c(C2CCNCC2)n1` | -0.1496 | -2.624 |
| 39 | `Cc1cc(N)n(C2CCCC2)n1` | 27.29 | 31.75 |
| 40 | `CCCS(=O)(=O)NC1CCNC1` (centres undefined) | 2.539 | 3.397 |
| 41 | `Cc1ccnc(NC(C)c2ccc(S(N)(=O)=O)cc2)c1` (centres undefined) | 8.925 | 23.72 |
| 42 | `Cc1ncncc1C(=O)NCCC1CCCN1C` (centres undefined) | -6.93 | -3.022 |
| 43 | `O=S1(=O)CCCN(Cc2ccc(Br)c(F)c2)CC1` | 77.27 | 73.18 |
| 44 | `C=C(C)CSCC(=O)NC(C)C(=O)N1CCCCC1` (centres undefined) | 19.56 | 41.3 |
| 45 | `N#Cc1nccnc1N1CCC(CN2CCOCC2)C1` (centres undefined) | 10.32 | 6.436 |
| 46 | `CC(c1ccccn1)N1CCN(CCCC#N)CC1` (centres undefined) | -0.006779 | 2.751 |
| 47 | `Cc1ccc(NC(=O)C(C)N)cc1` (centres undefined) | -1.696 | 11.7 |
| 48 | `Cc1nc2c(cc1C(=O)NCC1CC1)c(C)nn2C` | -12.36 | -9.732 |
| 49 | `Cc1nonc1OCCNC(=O)CN1CCOCC1` | -19.75 | -11.4 |
| 50 | `COc1ccc(C)cc1NC(=O)Cn1ccnc1` | 24.15 | 38.48 |
| 51 | `CCSC1(CNC(=O)c2ccc[nH]2)CCOCC1` | 22.27 | 11.41 |
| 52 | `CN1CCN(c2cccc(C#N)n2)CC1` | 3.048 | 5.694 |
| 53 | `Cc1ccsc1CNC(=O)NCC(C)N1CCOCC1` (centres undefined) | 0.7432 | 12.9 |
| 54 | `Cc1ccc(C(C)NC(=O)Cn2cc(Cl)c(C)n2)cn1` (centres undefined) | -2.796 | 35.8 |
| 55 | `Cc1cc(C(=O)N2CCCN(C)CC2)c(C)s1` | 5.693 | 36.14 |
| 56 | `FC(F)(F)CCOC1CCNCC1` | 28.56 | 23.14 |
| 57 | `NC(=O)CCNC1CCOc2ccccc21` (centres undefined) | 1.693 | 0.9758 |

Once more, the final 7:

{"compound": "CCSC1(CNC(=O)c2ccc[nH]2)CCOCC1", "Mtb cholesterol medium": 22.27, "Mtb glucose medium": 11.41}
{"compound": "CN1CCN(c2cccc(C#N)n2)CC1", "Mtb cholesterol medium": 3.048, "Mtb glucose medium": 5.694}
{"compound": "Cc1ccsc1CNC(=O)NCC(C)N1CCOCC1", "stereo": "centres undefined", "Mtb cholesterol medium": 0.7432, "Mtb glucose medium": 12.9}
{"compound": "Cc1ccc(C(C)NC(=O)Cn2cc(Cl)c(C)n2)cn1", "stereo": "centres undefined", "Mtb cholesterol medium": -2.796, "Mtb glucose medium": 35.8}
{"compound": "Cc1cc(C(=O)N2CCCN(C)CC2)c(C)s1", "Mtb cholesterol medium": 5.693, "Mtb glucose medium": 36.14}
{"compound": "FC(F)(F)CCOC1CCNCC1", "Mtb cholesterol medium": 28.56, "Mtb glucose medium": 23.14}
{"compound": "NC(=O)CCNC1CCOc2ccccc21", "stereo": "centres undefined", "Mtb cholesterol medium": 1.693, "Mtb glucose medium": 0.9758}

Measurements from “University of Dundee, Small-Polar-MMV Screening Library” (2021), ChEMBL document CHEMBL3988442.